Experimental data taken from PMC3022035.
These are yes or no findings as the source states them, for the method shown. In cells and extracts the contact can be indirect.

Target: T1, MKK6, endogenous in hTCEpi cells (human (endogenous in hTCEpi)) (UniProt P52564)
T1 sequence: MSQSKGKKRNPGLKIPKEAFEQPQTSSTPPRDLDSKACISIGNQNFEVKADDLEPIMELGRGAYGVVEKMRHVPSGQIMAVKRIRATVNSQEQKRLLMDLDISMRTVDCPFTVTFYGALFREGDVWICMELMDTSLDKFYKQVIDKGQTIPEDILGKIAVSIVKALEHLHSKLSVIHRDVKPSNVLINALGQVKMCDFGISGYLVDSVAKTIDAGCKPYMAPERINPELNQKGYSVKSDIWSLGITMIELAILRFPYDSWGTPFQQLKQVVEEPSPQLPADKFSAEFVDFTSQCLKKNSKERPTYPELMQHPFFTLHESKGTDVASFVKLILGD
Test: co-IP; hTCEpi cell lysates (untreated or TNF-α 10 ng/ml) incubated with primary antibodies (anti-p38, anti-IKKβ, anti-MKK6), then protein A agarose at 4°C overnight; Western blot

B1: IκB kinase β (IKKβ), endogenous in hTCEpi cells (enzyme, UniProt O14920 1-756)
chain: MSWSPSLTTQTCGAWEMKERLGTGGFGNVIRWHNQETGEQIAIKQCRQELSPRNRERWCLEIQIMRRLTHPNVVAARDVPEGMQNLAPNDLPLLAMEYCQGGDLRKYLNQFENCCGLREGAILTLLSDIASALRYLHENRIIHRDLKPENIVLQQGEQRLIHKIIDLGYAKELDQGSLCTSFVGTLQYLAPELLEQQKYTVTVDYWSFGTLAFECITGFRPFLPNWQPVQWHSKVRQKSEVDIVVSEDLNGTVKFSSSLPYPNNLNSVLAERLEKWLQLMLMWHPRQRGTDPTYGPNGCFKALDDILNLKLVHILNMVTGTIHTYPVTEDESLQSLKARIQQDTGIPEEDQELLQEAGLALIPDKPATQCISDGKLNEGHTLDMDLVFLFDNSKITYETQISPRPQPESVSCILQEPKRNLAFFQLRKVWGQVWHSIQTLKEDCNRLQQGQRAAMMNLLRNNSCLSKMKNSMASMSQQLKAKLDFFKTSIQIDLEKYSEQTEFGITSDKLLLAWREMEQAVELCGRENEVKLLVERMMALQTDIVDLQRSPMGRKQGGTLDDLEEQARELYRRLREKPRDQRTEGDSQEMVRLLLQAIQSFEKKVRVIYTQLSKTVVCKQKALELLPKVEEVVSLMNEDEKTVVRLQEKRQKELWNLLKIACSKVRGPVSGSPDSMNASRLSQPGQLMSQPSTASNSLPEPAKKSEELVAEAHNLCTLLENAIQDTVREQDQSFTALDWSWLQTEEEEHSCLEQAS
With B1 the binding was “no binding”.
